Measured data: PubChem BioAssay AID504808 (Drosophila RNAi Screening Center, 2011)
Test: 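Fly genes required to hold E2F transcription in check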 (primary screen). Cells: Drosophila S2 cells. Reagent: long dsRNA against Drosophila genes. Measurement: 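Firefly luciferase driven by E2F sites, normalised to Renilla luciferase on the same minimal promoter, measured by plate reader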. Direction: E2F firefly: higher = more E2F reporter activity; Renilla normaliser: higher = more normaliser reporter signal. Rule for the call: 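Called active if the normalised E2F reporter went up by over 50%; the cutoff is arbitrary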.
The deposit covers about 21,000 reagents; shown is an unselected part of those with a known target gene and a result. Over the whole deposit, 18 (0.084%) are marked active. 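Raw counts without plate normalisation, one of two replicates; the ratio scores behind the calls were not deposited.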 A plus sign joins genes that one reagent is predicted to hit. Reagent sequences are not shown. Not given: the amount of reagent, the time to read-out.

Knock-down of Gem4b + Gem4c [DRSC17294] resulted in: E2F firefly, rep 1 = 81878; Renilla normaliser, rep 1 = 2697; inactive.
lbe (ladybird early) [DRSC16985] showed E2F firefly, rep 1 = 1.44e5; Renilla normaliser, rep 1 = 7514; inactive.
opa (odd paired) [DRSC12384] showed E2F firefly, rep 1 = 1.20e5; Renilla normaliser, rep 1 = 5571; inactive.
For sob [DRSC00838] the deposit lists E2F firefly, rep 1 = 1.46e5; Renilla normaliser, rep 1 = 5224; inactive.
CG2811 [DRSC04318] showed E2F firefly, rep 1 = 94190; Renilla normaliser, rep 1 = 3883; inactive.
ND-30 (NADH dehydrogenase (ubiquinone) 30 kDa subunit) [DRSC08243] showed E2F firefly, rep 1 = 67191; Renilla normaliser, rep 1 = 3087; inactive.
For CG34149 [DRSC14537], the values are E2F firefly, rep 1 = 63121; Renilla normaliser, rep 1 = 2984; inactive.
mRpL14 (mitochondrial ribosomal protein L14) [DRSC18597] showed E2F firefly, rep 1 = 1.16e5; Renilla normaliser, rep 1 = 5793; inactive.
Depletion of Ino80 (INO80 complex subunit) [DRSC14760] came out at: E2F firefly, rep 1 = 1.18e5; Renilla normaliser, rep 1 = 6557; inactive.
After knock-down of Ino80 (INO80 complex subunit) [DRSC15333], the screen gave E2F firefly, rep 1 = 1.33e5; Renilla normaliser, rep 1 = 6807; inactive.
Silencing of Ino80 (INO80 complex subunit) [DRSC15501] came out at: E2F firefly, rep 1 = 1.35e5; Renilla normaliser, rep 1 = 6417; inactive.
Or85b (Odorant receptor 85b) [DRSC16765] showed E2F firefly, rep 1 = 1.41e5; Renilla normaliser, rep 1 = 5995; inactive.
After knock-down of CG4849 [DRSC15662], the record shows E2F firefly, rep 1 = 1178; Renilla normaliser, rep 1 = 1016; inactive.
With knock-down of Diedel [DRSC14317] the results were E2F firefly, rep 1 = 1.18e5; Renilla normaliser, rep 1 = 5708; inactive.
Against CG9839 [DRSC16574], the values are E2F firefly, rep 1 = 70217; Renilla normaliser, rep 1 = 3242; inactive.
Depletion of Rab32 [DRSC05146] came out at: E2F firefly, rep 1 = 1.41e5; Renilla normaliser, rep 1 = 5533; inactive.
For Rab32 [DRSC07522] the deposit lists E2F firefly, rep 1 = 3111; Renilla normaliser, rep 1 = 166; inactive.
CG14109 [DRSC10112] scored E2F firefly, rep 1 = 1.36e5; Renilla normaliser, rep 1 = 7073; inactive.
CG6700 [DRSC02980] gave E2F firefly, rep 1 = 78100; Renilla normaliser, rep 1 = 3111; inactive.
For CG6805 [DRSC07011] the deposit lists E2F firefly, rep 1 = 71778; Renilla normaliser, rep 1 = 3131; inactive.
Silencing of Tsr1 (Tsr1 ribosome assembly factor) [DRSC11821] came out at: E2F firefly, rep 1 = 76525; Renilla normaliser, rep 1 = 3263; inactive.
alpha4GT1 (alpha1,4-galactosyltransferase 1) [DRSC00488] scored E2F firefly, rep 1 = 85417; Renilla normaliser, rep 1 = 3450; inactive.
CG7460 [DRSC10850] gave E2F firefly, rep 1 = 1.75e5; Renilla normaliser, rep 1 = 10133; inactive.

Only “E2F firefly, rep 1”, for 5 of the entries above:
CG4849 [DRSC15662] = 1178
Diedel [DRSC14317] = 1.18e5
CG9839 [DRSC16574] = 70217
Rab32 [DRSC05146] = 1.41e5
Rab32 [DRSC07522] = 3111

Next reagents:
ND-19 (NADH dehydrogenase (ubiquinone) 19 kDa subunit) [DRSC04404] scored E2F firefly, rep 1 = 1.18e5; Renilla normaliser, rep 1 = 4475; inactive.
Knock-down of CG4645 [DRSC19907] came out at: E2F firefly, rep 1 = 8295; Renilla normaliser, rep 1 = 648; inactive.
After knock-down of CG31743 + CG34313 [DRSC02781] the results were E2F firefly, rep 1 = 87709; Renilla normaliser, rep 1 = 3428; inactive.
With knock-down of CG31743 + CG34313 [DRSC02782] the results were E2F firefly, rep 1 = 1.06e5; Renilla normaliser, rep 1 = 4131; inactive.
Against pigeon [DRSC03565], the values are E2F firefly, rep 1 = 76321; Renilla normaliser, rep 1 = 3227; inactive.
Knock-down of UQCR-14L (Ubiquinol-cytochrome c reductase 14 kDa subunit-like) [DRSC15288] gave: E2F firefly, rep 1 = 1.20e5; Renilla normaliser, rep 1 = 5972; inactive.
With knock-down of CG8086 [DRSC03078], the screen gave E2F firefly, rep 1 = 85305; Renilla normaliser, rep 1 = 3670; inactive.
CG8086 [DRSC03079] scored E2F firefly, rep 1 = 1.36e5; Renilla normaliser, rep 1 = 5343; inactive.
Against Tbcd (Tubulin-binding cofactor D) [DRSC00273] the deposit lists E2F firefly, rep 1 = 83969; Renilla normaliser, rep 1 = 3794; inactive.
Knock-down of CG34302 [DRSC12751] came out at: E2F firefly, rep 1 = 80253; Renilla normaliser, rep 1 = 4038; inactive.
Silencing of pio (piopio) [DRSC04386] resulted in: E2F firefly, rep 1 = 80137; Renilla normaliser, rep 1 = 3481; inactive.
Against CG10561 [DRSC02068], the values are E2F firefly, rep 1 = 84101; Renilla normaliser, rep 1 = 3374; inactive.
Knock-down of Or88a (Odorant receptor 88a) [DRSC16770] came out at: E2F firefly, rep 1 = 1.08e5; Renilla normaliser, rep 1 = 5915; inactive.
